# Values quoted from earlier work, collected in US8703427B2, “Biological materials and uses thereof” (PhotoBiotics Limited, priority 2005, dated 2014).
# At least one compound was matched to its structure with a doubt left.
# Conditions: wavelength of activation 652 nm; cited from earlier work
smiles,measurement,value
"Oc1cccc(-c2c3nc(c(-c4cccc(O)c4)c4ccc([nH]4)c(-c4cccc(O)c4)c4nc(c(-c5cccc(O)c5)c5ccc2[nH]5)CC4)C=C3)c1 [Foscan™, meta-tetrahydroxyphenyl chlorin]",quantum yield,0.43
